Data from the supplement of paper PMC11438910.
The list shows a part of the results. Most of these values are background signal.

What was measured:
Assay in all cases: fluorescence intensity of antibody binding to polysaccharide-coupled beads; higher = stronger binding
[1] = biological target: pneumococcal polysaccharide Pn44
[2] = biological target: pneumococcal polysaccharide Pn45
[3] = biological target: pneumococcal polysaccharide Pn46
[4] = biological target: pneumococcal polysaccharide Pn47A
[5] = biological target: pneumococcal polysaccharide Pn47F
[6] = biological target: pneumococcal polysaccharide Pn48
[7] = biological target: pneumococcal polysaccharide Pn5
[8] = biological target: pneumococcal polysaccharide Pn6A
[9] = biological target: pneumococcal polysaccharide Pn6B
[10] = biological target: pneumococcal polysaccharide Pn6C
[11] = biological target: pneumococcal polysaccharide Pn6D
[12] = biological target: pneumococcal polysaccharide Pn7A
[13] = antibody concentration 0.1 ng/mL
[14] = antibody concentration 0.534724 ng/mL
[15] = antibody concentration 2.8593 ng/mL
[16] = antibody concentration 15.2894 ng/mL
[17] = antibody concentration 81.7561 ng/mL
[18] = antibody concentration 437.17 ng/mL
[19] = antibody concentration 2337.65 ng/mL
[20] = antibody concentration 12500 ng/mL

B1: 4-80.1 (protein)
chain 1: QVQLQESGPGLVKPSETLSLTCAVSGIPISTYWWSWIRQTPEKGLEWIGEIDGNGGGTNYNPSLQSRVTFSKDASKNQFSLRLNSVTAADTAVFYCARLWGNAYWGQGVLVTVSS
chain 2: DVVMTQSPLSLPINPGQPASISCRSSQSLVYSDGKTYLTWYQQKPGQPPRRLIYQVSKRDSGVPDRFSGSGAGTDFTLKISRVESEDVGIYYCLQGTHLPYTFGQGTKVEIK
B1 showed a fluorescence intensity [1, 13] of 25.5 MFI, a fluorescence intensity [1, 14] of 24.5 MFI and a fluorescence intensity [1, 15] of 24.5 MFI. It also gave a fluorescence intensity [1, 16] of 25.5 MFI, a fluorescence intensity [1, 17] of 26 MFI and a fluorescence intensity [1, 18] of 40 MFI. For the same binder, the fluorescence intensity [1, 19] was 86 MFI, the fluorescence intensity [1, 20] was 178 MFI and the fluorescence intensity [2, 13] was 11 MFI. The fluorescence intensity [2, 14] was 11 MFI, the fluorescence intensity [2, 15] was 11.5 MFI and the fluorescence intensity [2, 16] was 11 MFI. It also gave a fluorescence intensity [2, 17] of 14 MFI, a fluorescence intensity [2, 18] of 36.5 MFI and a fluorescence intensity [2, 19] of 112 MFI. For the same binder, the fluorescence intensity [2, 20] was 247 MFI, the fluorescence intensity [3, 13] was 24.2 MFI and the fluorescence intensity [3, 14] was 25 MFI. For the same binder, the fluorescence intensity [3, 15] was 29 MFI, the fluorescence intensity [3, 16] was 86.2 MFI and the fluorescence intensity [3, 17] was 457 MFI. It also gave a fluorescence intensity [3, 18] of 1680 MFI, a fluorescence intensity [3, 19] of 2670 MFI and a fluorescence intensity [3, 20] of 3200 MFI. It also gave a fluorescence intensity [4, 13] of 17 MFI, a fluorescence intensity [4, 14] of 15.5 MFI and a fluorescence intensity [4, 15] of 16.8 MFI. The fluorescence intensity [4, 16] was 22 MFI, the fluorescence intensity [4, 17] was 102 MFI and the fluorescence intensity [4, 18] was 574 MFI. For the same binder, the fluorescence intensity [4, 19] was 1160 MFI, the fluorescence intensity [4, 20] was 1440 MFI and the fluorescence intensity [5, 13] was 11.5 MFI. It also gave a fluorescence intensity [5, 14] of 11 MFI, a fluorescence intensity [5, 15] of 12.5 MFI and a fluorescence intensity [5, 16] of 12.5 MFI. It also gave a fluorescence intensity [5, 17] of 28.5 MFI, a fluorescence intensity [5, 18] of 146 MFI and a fluorescence intensity [5, 19] of 376 MFI. The fluorescence intensity [5, 20] was 604 MFI, the fluorescence intensity [6, 13] was 20.5 MFI and the fluorescence intensity [6, 14] was 20.5 MFI. The fluorescence intensity [6, 15] was 23.5 MFI, the fluorescence intensity [6, 16] was 25.5 MFI and the fluorescence intensity [6, 17] was 48.5 MFI. It also gave a fluorescence intensity [6, 18] of 294 MFI, a fluorescence intensity [6, 19] of 753 MFI and a fluorescence intensity [6, 20] of 1100 MFI. For the same binder, the fluorescence intensity [7, 13] was 9 MFI, the fluorescence intensity [7, 14] was 9.75 MFI and the fluorescence intensity [7, 15] was 9 MFI. For the same binder, the fluorescence intensity [7, 16] was 13.5 MFI, the fluorescence intensity [7, 17] was 52 MFI and the fluorescence intensity [7, 18] was 293 MFI. The fluorescence intensity [7, 19] was 575 MFI, the fluorescence intensity [7, 20] was 789 MFI and the fluorescence intensity [8, 13] was 20.5 MFI. The fluorescence intensity [8, 14] was 22.5 MFI, the fluorescence intensity [8, 15] was 22.5 MFI and the fluorescence intensity [8, 16] was 31.5 MFI. It also gave a fluorescence intensity [8, 17] of 108 MFI, a fluorescence intensity [8, 18] of 566 MFI and a fluorescence intensity [8, 19] of 1090 MFI. For the same binder, the fluorescence intensity [8, 20] was 1490 MFI, the fluorescence intensity [9, 13] was 20.5 MFI and the fluorescence intensity [9, 14] was 19.8 MFI. The fluorescence intensity [9, 15] was 20.8 MFI, the fluorescence intensity [9, 16] was 28 MFI and the fluorescence intensity [9, 17] was 78.2 MFI. For the same binder, the fluorescence intensity [9, 18] was 348 MFI, the fluorescence intensity [9, 19] was 614 MFI and the fluorescence intensity [9, 20] was 801 MFI. For the same binder, the fluorescence intensity [10, 13] was 16.5 MFI, the fluorescence intensity [10, 14] was 17.5 MFI and the fluorescence intensity [10, 15] was 17 MFI. The fluorescence intensity [10, 16] was 18 MFI, the fluorescence intensity [10, 17] was 22.5 MFI and the fluorescence intensity [10, 18] was 208 MFI. The fluorescence intensity [10, 19] was 622 MFI, the fluorescence intensity [10, 20] was 1040 MFI and the fluorescence intensity [11, 13] was 16.5 MFI. For the same binder, the fluorescence intensity [11, 14] was 17 MFI, the fluorescence intensity [11, 15] was 19 MFI and the fluorescence intensity [11, 16] was 26 MFI. It also gave a fluorescence intensity [11, 17] of 97.8 MFI, a fluorescence intensity [11, 18] of 520 MFI and a fluorescence intensity [11, 19] of 990 MFI. The fluorescence intensity [11, 20] was 1270 MFI, the fluorescence intensity [12, 13] was 20 MFI and the fluorescence intensity [12, 14] was 20 MFI.
